These are yes or no findings as the source states them, for the method shown. Binding seen in cells or lysates may run through a third protein. Some binding calls cover weakened binding; strength is not graded here.

By UniProt entry, the sequences of proteins in these tests, tags left out.
UniProt P17676: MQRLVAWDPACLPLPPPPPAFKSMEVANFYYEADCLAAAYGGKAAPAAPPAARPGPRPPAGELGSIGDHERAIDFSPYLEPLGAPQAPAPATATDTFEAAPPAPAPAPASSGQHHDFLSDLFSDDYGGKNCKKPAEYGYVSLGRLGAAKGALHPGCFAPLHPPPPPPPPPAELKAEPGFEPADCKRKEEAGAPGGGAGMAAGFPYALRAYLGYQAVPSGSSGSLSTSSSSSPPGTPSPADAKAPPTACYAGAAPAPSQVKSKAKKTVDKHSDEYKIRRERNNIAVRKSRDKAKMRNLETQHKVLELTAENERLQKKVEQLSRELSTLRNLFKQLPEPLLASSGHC
UniProt Q13547: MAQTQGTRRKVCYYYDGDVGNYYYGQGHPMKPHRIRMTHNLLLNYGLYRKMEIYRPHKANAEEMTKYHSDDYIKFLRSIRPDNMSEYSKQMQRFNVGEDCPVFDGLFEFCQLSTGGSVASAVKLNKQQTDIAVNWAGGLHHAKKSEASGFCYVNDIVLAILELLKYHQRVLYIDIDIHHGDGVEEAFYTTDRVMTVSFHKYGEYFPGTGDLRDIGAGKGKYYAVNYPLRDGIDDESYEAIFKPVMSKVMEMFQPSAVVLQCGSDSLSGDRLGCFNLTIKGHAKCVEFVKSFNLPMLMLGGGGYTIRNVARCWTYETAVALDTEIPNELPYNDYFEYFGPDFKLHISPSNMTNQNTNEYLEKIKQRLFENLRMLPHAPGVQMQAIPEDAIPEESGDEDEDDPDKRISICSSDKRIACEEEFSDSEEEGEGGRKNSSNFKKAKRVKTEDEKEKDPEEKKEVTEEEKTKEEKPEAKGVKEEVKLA

In this experiment the target is CCAAT/enhancer-binding protein beta (human (endogenous in patient-derived GBM spheres)) (UniProt P17676). The experiment in a line: co-IP; lysate of core-like 267 (Fig. 8d) and core-like 1005 (Supplementary Fig. 8b) GBM spheres; precipitated with antibodies against C/EBPβ on magnetic beads (antibody overnight at 4 °C, beads 1 h at room temperature), low-pH elution, HDAC1 detected.

For HDAC1 (from UniProt Q13547 1-482), the binding entry was “binds”.

The values above are taken from publication PMC7494913.
